Source: patent US9878007B2, “Syndecan peptides and polypeptides as inhibitors of vascular endothelial growth factor receptor-2 (VEGFR2) and very late antigen-4 (VLA-4)” (Wisconsin Alumni Research Foundation, priority 2015, dated 2018)
For part of these data: At least one structure is not confirmed: it was looked up by name or label, or the drawing left a doubt. Some results were stated once for a whole list of compounds, not compound by compound. Some compounds share one range, which may span the group rather than tell each member. No end group written: not given here.

Assays:
[1] = test system: CAG myeloma cells; test: Cell spreading / attachment assay of CAG myeloma cells on FN or VCAM-1; type: cell-based, human
Procedure: Nitrocellulose-coated slides were coated for 2 hr at 37° C. with 40 μg/ml FN (kindly provided by Dr. Donna Peters, University of Wisconsin-Madison) or 5 μg/ml recombinant VCAM-1/Fc chimera (R&D Systems) in calcium and magnesium-free PBS (CMF-PBS; 135 mM NaCl, 2.7 mM KCl, 10.2 mM Na2HPO4-7H20 and 1.75 mM KH2PO4, pH7.4). Slides were blocked for 1 hr at 37° C. with RPMI 1640 containing 1% heat-denatured BSA (plating medium). Cells in plating medium were allowed to attach and spread for 2.5 hr at 37° C. Slides were fixed in 4% EM grade paraformaldehyde (Electron Microscopy Sciences) in CMF-PBS and labeled for 30 min in 0.13 μM rhodamine phalloidin (Invitrogen) in CMF-PBS. Coverslips were mounted in non-fluorescing mounting medium (Immumount; Thermo Shandon) and allowed to dry. All images were acquired with a Nikon Microphot FX microscope using a 20× objective (Nikon; Ex 541-551, DM 580, Barrier 590), Photometric CoolSnap ES camera, and version 7.7.3.0 Metamorph© Imaging software (Molecular Devices). All images represent results from triplicate wells and at least three independent experiments.

[2] = test system: P3x63Ag8 mouse myeloma cells; test: Invasion of P3x63Ag8 myeloma cells through FN-coated filters; type: cell-based; conditions: 16 hr
Procedure: FIG. 7A-B. S1ED^214-236, specific for VEGFR2 coupling to VLA-4, blocks myeloma cell invasion but not adhesion. (FIG. 7A) P3x63Ag8 mouse myeloma cells are plating on the VLA-4 ligand FN in the presence or absence of 30 uM S1ED^210-233 (SEQ ID No: 4) or S1ED^214-236 (SEQ ID No: 7) for 2.5 hr. (FIG. 7B) P3x63Ag8 myeloma cells are plated on FN-coated filters in the presence of HPSE inhibitor OGT2115, VLA-4 blocking antibody P1H4, VEGFR2 inhibitor Vandetanib or S1ED^210-233 or S1ED^214-236 and allowed to migrate through the filter for 16 hr. Small black dots are the pores in the filter.
(§1) The bottom chambers of Transwell filter chambers (8 μm pores; Corning) were coated with 40 μg/ml of FN. Cells (5×10^5 in 0.2 ml plating medium) were placed in the upper chamber and incubated for 16 hr at 37° C. in the CO2 incubator. After incubation, cells in the upper chamber were removed and cells on the bottom side of the filter were fixed in 4% paraformaldehyde (PFA) and stained with 0.1% Crystal Violet before imaging. Cells from at least five random fields were counted.

[3] = test system: CAG myeloma cells; test: Transwell migration assay of CAG myeloma cells towards FN; type: cell-based, human; conditions: FN-coated transwell filters, 16 hr; 30 μM peptide
Procedure: as §1

[4] = test system: HMEC-1 cells; test: Transwell migration / invasion assay of HMEC-1 cells; type: cell-based; conditions: 16 hr
Procedure: (§2) FIGS. 8A-H. HPSE mediated the Sdc1-coupled VEGFR2 complex in endothelial cells induces angiogenesis. (FIG. 8A) Lysates from HPSE^low, HPSE^high and HMEC-1 cells are probed by immunoblotting for expression of HPSE. (FIG. 8B) HMEC-1 cells were seeded at equal density and grown in serum-free media for 24 hr in the absence or presence of 125 μg/ml of the HPSE inhibitor SST0001. After 24 hr, conditioned media were harvested, and the level of shed Sdc1 in the conditioned medium from each condition was determined by immunoblotting. (FIG. 8C) HMEC-1 cell lysate was incubated overnight with glutathione beads coated with GST or GST-S1ED. Capture of VLA-4 or VEGFR2 was detected by immunoblotting. (FIG. 8D) HMEC-1 cells were plated on IIICS for 3 hr and double stained for VLA-4 and Sdc1, VEGFR2 and Sdc1, or VLA-4 and VEGFR2. (FIG. 8E) HMEC-1 cells were treated with DMSO, VLA-4 blocking antibody P1H4, β1-integrin blocking antibody mAb13, 10 μg/ml MMP9 blocking antibody, 125 μg/ml HPSE inhibitor SST0001, Vandetanib, VEGFR2 blocking antibody, 30 μM S1ED^210-233 or 30 μM S1ED^214-240 and then plated on IIICS. Images were taken from random field with 200× magnification for counting attached and spread cells. […]
The bottom chambers of Transwell filter chambers (8 μm pores; Corning) were coated with 40 μg/ml of FN. […] Cells from at least five random fields were counted.

[5] = test system: HMEC-1 cells; test: Attachment and spreading of HMEC-1 cells on IIICS; type: cell-based; conditions: plated on IIICS; 30 μM peptides, 125 μg/ml SST0001, 10 μg/ml MMP9 blocking antibody
Procedure: as §2, with “cells. (FIG. 8F) HMEC-1 cells were plated on IIICS in the presence of 10 μM of S1ED^210-236, S1ED^210-233, S1ED^215-240, and S1ED^214-240.” for “cells.”

Compound | adhesion of HPSE^low or HPSE^high cells ([1]; 1 μM Vandetanib) | HPSE^high cell spreading / invasive phenotype ([1]; 1 μM Vandetanib or 20 μg/ml VEGFR2 blocking antibody) | invasion / migration of P3X cells through FN-coated filters [2] | reduction of HPSE^high cell migration [3] | invasion of HMEC-1 cells [4] | VLA-4 dependent spreading of HMEC-1 cells [5]
COc1cc2c(Nc3ccc(Br)cc3F)ncnc2cc1OCC1CCN(C)CC1 [Vandetanib, reference compound] | did not affect the adhesion of either the HPSE^low or HPSE^high cells | completely inhibits HPSE^high cell spreading on FN | Cell migration is only observed in the untreated controls | 60-80% | all block invasion | prevented
DFTFETSGENTAVVAVEPDRRNQSPVD [S1ED^210-236] | – | – | – | 60-80% | – | –
S1ED^210-233: syndecan-1 ectodomain peptide, residues 210-233 (SEQ ID NO: 4) (DFTFETSGENTAVVAVEPDRRNQS) | – | – | – | 60-80% | – | –
S1ED^214-240: syndecan-1 ectodomain peptide, residues 214-240 (SEQ ID NO: 5) (ETSGENTAVVAVEPDRRNQSPVDQGAT) | – | – | – | 60-80% | – | –
